According to CN108635579A:
Substitutions are numbered along the chain they refer to. No constants are given. Whether binding was seen depends on the method and setting. Binding calls can cover weak binding; strength is not graded here.

B1: 抗bFGF纳米抗体 Nb5 (VHH)
VHH: LQESGGGLVQAGGSLRLSCAASGRTFSSGAMGWFRQAPGKEPEFVATITWDGGTTYYADSVKGRYTISRDNAKNTVYLQMNDLKPEDTAVYSCAARSYSEAYYLIGSSDYNYWGQGTQVTVSS
B2: 抗bFGF纳米抗体 Nb1 (VHH)
VHH: LQESGGDLVQPGGSLRLSCEVSGSNFSNNDMGWYRQAPGKQREVVAGISSVGRTMYGDPVKGRFTISRDNAKNMVYLQMNRLKAKDTAVYYCHLYGDYRGTGFWGKGTQVTVSS
B3: 抗bFGF纳米抗体 Nb6 (VHH)
VHH: B2 VHH with N28I, Q41R, A84P, K85E
B4: 抗bFGF纳米抗体 Nb2 (VHH)
VHH: B2 VHH with N28I, Q41R, T54A, G57A, A84P, K85E, H93Y
B5: 抗bFGF纳米抗体 Nb3 (VHH)
VHH: B2 VHH with N28I, Q41R, G57A, A84P, K85E

molecular target: TNFα; experiment: ELISA, antigen coated 50 ng/well, nanobody 100 ng/well, anti-Flag detection

binding	Binder
binds	B1
binds	B2
binds	B3
binds	B4
binds	B5

molecular target: EGF; experiment: as above

binding	Binder
binds	B1
binds	B2
binds	B3
binds	B4
binds	B5

molecular target: aFGF; experiment: as above

binding	Binder
binds	B1
binds	B2
binds	B3
binds	B4
binds	B5

molecular target: VEGF; experiment: as above

binding	Binder
binds	B1
binds	B2
binds	B3
binds	B4
binds	B5

molecular target: KGF; experiment: as above

binding	Binder
binds	B1
binds	B2
binds	B3
binds	B4
binds	B5
